Drawing on paper doi:10.1101/2025.10.27.684738, this text covers binding for three molecules.

What all share (test): SEC
Test [1] concerns the target ANXA11 N-terminal domain (Nt, residues 1-191) (human) (UniProt P50995).
Test [2] deals with ANXA11 N-terminal domain p.D40G mutant (Nt_(D40G), residues 1-191) (human) (UniProt P50995).
Test [3] addresses T1, ANXA11 C-terminal domain (Ct, residues 201-505) (human) (UniProt P50995).
T1 sequence (chain, RED-NHS 2nd Generation fluorescent dye in the MST (labelling degree ~0.6)): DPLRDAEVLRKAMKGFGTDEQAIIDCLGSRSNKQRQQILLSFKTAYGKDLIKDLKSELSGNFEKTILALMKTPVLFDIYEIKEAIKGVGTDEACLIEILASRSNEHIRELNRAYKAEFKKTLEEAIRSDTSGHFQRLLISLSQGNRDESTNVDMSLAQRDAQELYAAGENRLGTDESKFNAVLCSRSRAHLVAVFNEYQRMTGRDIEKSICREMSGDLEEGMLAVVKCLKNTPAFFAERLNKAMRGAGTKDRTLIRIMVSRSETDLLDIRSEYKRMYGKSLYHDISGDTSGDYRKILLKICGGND

These are yes or no findings as the source states them, for the method shown.

“ANXA11 N-terminal domain (Nt, residues 1-191) (from UniProt P50995 1-191) (domain or fragment)”: the binding result in test [1] was “no binding”.
As to “ANXA11 N-terminal domain p.D40G mutant (Nt_(D40G), residues 1-191) (from UniProt P50995 1-191) (domain or fragment)”, the binding entry in test [2] is recorded as “no binding”.

B1: ANXA11 C-terminal domain (Ct, residues 201-505) (domain or fragment, UniProt P50995 201-505)
chain: DPLRDAEVLRKAMKGFGTDEQAIIDCLGSRSNKQRQQILLSFKTAYGKDLIKDLKSELSGNFEKTILALMKTPVLFDIYEIKEAIKGVGTDEACLIEILASRSNEHIRELNRAYKAEFKKTLEEAIRSDTSGHFQRLLISLSQGNRDESTNVDMSLAQRDAQELYAAGENRLGTDESKFNAVLCSRSRAHLVAVFNEYQRMTGRDIEKSICREMSGDLEEGMLAVVKCLKNTPAFFAERLNKAMRGAGTKDRTLIRIMVSRSETDLLDIRSEYKRMYGKSLYHDISGDTSGDYRKILLKICGGND
modifications: RED-NHS 2nd Generation fluorescent dye in the MST (labelling degree ~0.6)
For B1, the binding entry in test [3] is listed as “no binding”.
